Experimental data published in patent publication US12436145B2, “Cryptic antibiotics and methods for detecting bioactive cryptic metabolites” (THE TRUSTEES OF PRINCETON UNIVERSITY, priority 2019, dated 2025).
Entries after “also recorded” stand apart in the source; their conditions may differ.

Tests used:
S. hiroshimensis A18 = details: 33 μM atenolol vs DMSO control
S. hiroshimensis = test: Elicitor screening, supernatants in liquid bioassay against E. coli; assay type: cell-based, Streptomyces hiroshimensis; details: S. hiroshimensis grown with ~33 μM elicitor; supernatant on E. coli, OD600 nm
Experimental: For the high-throughput-elicitor screening portion of this example, the procedure is described for S. hiroshimensis. An identical procedure was used for S. lavendulae and A. keratiniphila. […] The culture was incubated at 30° C./250 rpm for two days. Then, the mycelia cell mass was pelleted by centrifugation, the supernatant discarded, and a stock solution of 100 mg/mL cell mass was generated in R4 medium. The stock solution was used to prepare the appropriate volume (see below) of R4 medium containing 0.5 mg/mL mycelia cell mass in a 250 mL Erlenmeyer flask. The suspension was homogenized by stirring at room temperature. Subsequently, a MultiFlow Dispenser (from Biotek, Inc.) was used to dispense 150 μL of the suspension into each well of six sterile round bottom 96 well plates (from Corning, Inc.). […]
From the elicitor plates, after culturing for 5 days, the plates were spun down in a 96-well plate centrifuge and the supernatants (10 μL) transferred to fresh 96-well assay plates, each well containing 100 μL LB-E. coli culture, with the E. coli cells inoculated to an initial OD600 nm OD600 nm of 0.002. The assay plates were cultured at 37° C./200 rpm overnight (10-12 h) and OD600 nm was then determined using a plate reader. […]

S. cebuensis [1] = test: Elicitor screening, supernatants on E. coli cultures (OD600 nm); assay type: cell-based, Saccharopolyspora cebuensis; details: S. cebuensis grown with elicitor, supernatant on E. coli
Experimental: Wild-type S. cebuensis cultures were transferred to 96 well-plates and each well was robotically supplemented with a compound from a commercial small molecule library as a source of elicitors. […] To grow the cells, the plates were incubated for a defined period. […] The OD600 nm from each well was normalized and the % E. coli growth thus obtained was plotted as a function of each elicitor, allowing one to identify at least one elicitor corresponding to a second activity greater than the first activity.

S. cebuensis [2] = details: S. cebuensis cultures treated with elicitor

Compound	induction of secondary metabolites (HPLC-MS peaks) (S. hiroshimensis A18)	effect of elicitor-induced metabolome on E. coli growth (S. hiroshimensis)	effect of elicitor-induced metabolome on E. coli growth (S. cebuensis [1])	induction of secondary metabolites (HPLC-MS profiling) (S. cebuensis [2])
CC(C)NCC(O)COc1ccc(CC(N)=O)cc1 (stereo not shown) [atenolol]	numerous new peaks induced	inhibited E. coli growth best; also recorded: most effective at inhibiting E. coli	–	–
NS(=O)(=O)c1cc(C(=O)O)c(NCc2ccco2)cc1Cl [furosemide]	–	–	inhibited it	appearance of several induced metabolites
